Data reported in the supplement of paper PMC10849652.
The list shows a part of the results.

Amino acid sequences for entries named in this document (tags omitted). A change or cut given only in a name is not applied to a line headed by its entry.
UniProt Q9HCC9: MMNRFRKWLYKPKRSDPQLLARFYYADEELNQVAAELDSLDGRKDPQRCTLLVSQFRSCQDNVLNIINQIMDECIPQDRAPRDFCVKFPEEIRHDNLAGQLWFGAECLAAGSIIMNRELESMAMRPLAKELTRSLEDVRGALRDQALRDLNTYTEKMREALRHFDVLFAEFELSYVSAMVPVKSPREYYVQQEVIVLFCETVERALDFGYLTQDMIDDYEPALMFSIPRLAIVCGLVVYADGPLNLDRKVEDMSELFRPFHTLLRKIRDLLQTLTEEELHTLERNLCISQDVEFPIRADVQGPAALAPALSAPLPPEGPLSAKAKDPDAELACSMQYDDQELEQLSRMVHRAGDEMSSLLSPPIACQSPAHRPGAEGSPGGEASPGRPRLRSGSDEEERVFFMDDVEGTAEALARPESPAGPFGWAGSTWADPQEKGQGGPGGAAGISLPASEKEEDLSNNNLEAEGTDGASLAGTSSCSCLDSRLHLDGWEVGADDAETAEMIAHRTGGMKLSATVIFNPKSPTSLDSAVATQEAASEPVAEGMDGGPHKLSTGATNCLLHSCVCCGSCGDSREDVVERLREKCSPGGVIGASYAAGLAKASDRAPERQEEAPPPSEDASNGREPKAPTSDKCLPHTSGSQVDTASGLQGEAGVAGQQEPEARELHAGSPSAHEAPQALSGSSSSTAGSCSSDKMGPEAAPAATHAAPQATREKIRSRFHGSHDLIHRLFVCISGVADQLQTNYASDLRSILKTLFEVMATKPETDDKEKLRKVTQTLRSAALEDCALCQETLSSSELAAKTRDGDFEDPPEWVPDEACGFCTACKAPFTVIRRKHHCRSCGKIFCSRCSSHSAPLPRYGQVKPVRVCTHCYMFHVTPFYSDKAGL
UniProt Q9BSR8: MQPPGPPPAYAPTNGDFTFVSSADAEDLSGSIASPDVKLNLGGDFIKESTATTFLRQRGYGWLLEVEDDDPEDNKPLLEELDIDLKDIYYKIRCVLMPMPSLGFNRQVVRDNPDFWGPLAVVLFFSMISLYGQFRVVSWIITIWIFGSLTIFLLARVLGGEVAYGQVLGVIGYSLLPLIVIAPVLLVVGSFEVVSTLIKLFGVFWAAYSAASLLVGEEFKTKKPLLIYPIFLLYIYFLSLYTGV
UniProt Q8N4Q0: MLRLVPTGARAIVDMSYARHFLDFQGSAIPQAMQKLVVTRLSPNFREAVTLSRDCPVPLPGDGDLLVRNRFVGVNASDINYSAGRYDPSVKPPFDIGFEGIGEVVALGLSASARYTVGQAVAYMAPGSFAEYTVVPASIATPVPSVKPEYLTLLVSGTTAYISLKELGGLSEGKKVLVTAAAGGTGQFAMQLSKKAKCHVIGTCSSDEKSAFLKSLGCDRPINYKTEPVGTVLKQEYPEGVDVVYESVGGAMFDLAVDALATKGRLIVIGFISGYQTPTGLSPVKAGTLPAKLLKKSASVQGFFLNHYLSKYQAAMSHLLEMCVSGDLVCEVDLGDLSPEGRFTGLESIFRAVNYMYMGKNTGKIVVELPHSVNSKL
UniProt Q9NP64: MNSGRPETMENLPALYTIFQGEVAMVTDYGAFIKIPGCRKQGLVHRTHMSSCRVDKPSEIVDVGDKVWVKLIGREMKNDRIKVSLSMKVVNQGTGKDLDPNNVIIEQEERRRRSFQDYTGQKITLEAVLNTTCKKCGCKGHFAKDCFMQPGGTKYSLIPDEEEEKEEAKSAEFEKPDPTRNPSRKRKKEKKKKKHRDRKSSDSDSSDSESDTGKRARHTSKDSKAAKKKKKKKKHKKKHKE
UniProt O43592: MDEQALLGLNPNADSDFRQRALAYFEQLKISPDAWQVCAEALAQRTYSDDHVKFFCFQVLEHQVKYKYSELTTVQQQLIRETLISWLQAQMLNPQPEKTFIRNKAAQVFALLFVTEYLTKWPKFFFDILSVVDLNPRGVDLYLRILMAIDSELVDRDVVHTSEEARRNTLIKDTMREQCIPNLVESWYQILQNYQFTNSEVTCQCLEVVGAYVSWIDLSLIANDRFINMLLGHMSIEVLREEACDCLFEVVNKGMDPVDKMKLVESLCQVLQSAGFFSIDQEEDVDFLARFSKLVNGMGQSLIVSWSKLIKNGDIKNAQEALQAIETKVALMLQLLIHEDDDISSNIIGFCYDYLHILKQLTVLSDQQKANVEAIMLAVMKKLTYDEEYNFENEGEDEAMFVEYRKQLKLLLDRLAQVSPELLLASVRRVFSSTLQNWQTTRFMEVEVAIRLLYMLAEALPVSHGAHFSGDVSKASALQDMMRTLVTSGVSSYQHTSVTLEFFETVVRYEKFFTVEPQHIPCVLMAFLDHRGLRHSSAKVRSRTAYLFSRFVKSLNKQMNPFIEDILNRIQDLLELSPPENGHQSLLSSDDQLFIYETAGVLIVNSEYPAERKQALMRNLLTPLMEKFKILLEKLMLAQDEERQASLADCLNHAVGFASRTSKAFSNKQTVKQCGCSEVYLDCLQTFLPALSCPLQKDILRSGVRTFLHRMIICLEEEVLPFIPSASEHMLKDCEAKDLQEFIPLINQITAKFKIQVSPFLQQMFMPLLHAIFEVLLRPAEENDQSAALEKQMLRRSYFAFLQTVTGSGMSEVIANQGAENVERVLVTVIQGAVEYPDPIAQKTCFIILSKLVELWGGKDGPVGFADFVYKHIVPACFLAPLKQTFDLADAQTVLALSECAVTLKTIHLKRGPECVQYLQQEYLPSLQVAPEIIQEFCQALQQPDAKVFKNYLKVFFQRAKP
UniProt Q9C0E2: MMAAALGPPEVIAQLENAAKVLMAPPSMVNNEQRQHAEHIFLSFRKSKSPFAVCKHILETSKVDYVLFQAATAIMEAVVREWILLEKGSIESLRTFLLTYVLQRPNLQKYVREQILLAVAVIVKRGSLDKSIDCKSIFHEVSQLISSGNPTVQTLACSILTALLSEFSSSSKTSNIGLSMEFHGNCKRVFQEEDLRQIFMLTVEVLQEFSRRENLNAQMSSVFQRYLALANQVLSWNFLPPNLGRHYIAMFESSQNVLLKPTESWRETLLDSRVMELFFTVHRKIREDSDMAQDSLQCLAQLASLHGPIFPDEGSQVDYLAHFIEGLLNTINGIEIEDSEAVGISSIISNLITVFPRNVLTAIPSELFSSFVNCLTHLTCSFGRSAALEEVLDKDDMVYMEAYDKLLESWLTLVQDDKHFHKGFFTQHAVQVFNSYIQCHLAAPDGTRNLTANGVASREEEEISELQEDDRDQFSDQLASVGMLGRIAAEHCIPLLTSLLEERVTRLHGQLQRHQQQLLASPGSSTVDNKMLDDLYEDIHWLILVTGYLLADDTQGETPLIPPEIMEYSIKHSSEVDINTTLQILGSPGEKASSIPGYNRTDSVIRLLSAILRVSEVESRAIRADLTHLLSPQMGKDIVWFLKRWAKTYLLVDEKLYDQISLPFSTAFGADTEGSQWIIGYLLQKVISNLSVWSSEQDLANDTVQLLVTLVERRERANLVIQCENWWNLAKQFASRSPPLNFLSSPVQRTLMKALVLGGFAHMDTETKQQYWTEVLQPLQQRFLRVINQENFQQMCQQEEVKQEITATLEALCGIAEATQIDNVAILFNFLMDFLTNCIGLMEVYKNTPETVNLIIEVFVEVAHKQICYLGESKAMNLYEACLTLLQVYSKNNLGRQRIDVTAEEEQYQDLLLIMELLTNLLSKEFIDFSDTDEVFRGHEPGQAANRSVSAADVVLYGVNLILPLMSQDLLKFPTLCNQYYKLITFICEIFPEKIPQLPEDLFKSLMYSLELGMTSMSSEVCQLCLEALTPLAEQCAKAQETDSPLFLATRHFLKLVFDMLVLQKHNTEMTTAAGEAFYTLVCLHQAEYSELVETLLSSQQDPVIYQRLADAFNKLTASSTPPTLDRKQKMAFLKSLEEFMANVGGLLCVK
UniProt Q9UBH6: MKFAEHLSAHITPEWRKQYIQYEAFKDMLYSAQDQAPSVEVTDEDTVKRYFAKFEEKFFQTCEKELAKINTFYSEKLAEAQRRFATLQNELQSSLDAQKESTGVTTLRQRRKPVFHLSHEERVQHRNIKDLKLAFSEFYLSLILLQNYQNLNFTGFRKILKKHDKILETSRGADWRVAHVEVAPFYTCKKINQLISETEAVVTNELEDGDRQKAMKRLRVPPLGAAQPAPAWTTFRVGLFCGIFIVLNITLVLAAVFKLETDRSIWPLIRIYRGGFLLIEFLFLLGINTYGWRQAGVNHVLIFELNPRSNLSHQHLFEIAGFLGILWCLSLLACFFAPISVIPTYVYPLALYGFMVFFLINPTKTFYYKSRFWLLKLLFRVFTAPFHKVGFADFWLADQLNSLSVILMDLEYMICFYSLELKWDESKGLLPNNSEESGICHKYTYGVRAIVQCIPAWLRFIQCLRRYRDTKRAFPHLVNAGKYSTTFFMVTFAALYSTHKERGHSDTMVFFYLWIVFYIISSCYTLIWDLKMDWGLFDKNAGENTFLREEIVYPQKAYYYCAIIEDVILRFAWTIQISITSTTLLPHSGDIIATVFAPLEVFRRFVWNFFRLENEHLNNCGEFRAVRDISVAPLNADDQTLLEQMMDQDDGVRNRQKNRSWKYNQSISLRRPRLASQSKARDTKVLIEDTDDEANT
UniProt O95405: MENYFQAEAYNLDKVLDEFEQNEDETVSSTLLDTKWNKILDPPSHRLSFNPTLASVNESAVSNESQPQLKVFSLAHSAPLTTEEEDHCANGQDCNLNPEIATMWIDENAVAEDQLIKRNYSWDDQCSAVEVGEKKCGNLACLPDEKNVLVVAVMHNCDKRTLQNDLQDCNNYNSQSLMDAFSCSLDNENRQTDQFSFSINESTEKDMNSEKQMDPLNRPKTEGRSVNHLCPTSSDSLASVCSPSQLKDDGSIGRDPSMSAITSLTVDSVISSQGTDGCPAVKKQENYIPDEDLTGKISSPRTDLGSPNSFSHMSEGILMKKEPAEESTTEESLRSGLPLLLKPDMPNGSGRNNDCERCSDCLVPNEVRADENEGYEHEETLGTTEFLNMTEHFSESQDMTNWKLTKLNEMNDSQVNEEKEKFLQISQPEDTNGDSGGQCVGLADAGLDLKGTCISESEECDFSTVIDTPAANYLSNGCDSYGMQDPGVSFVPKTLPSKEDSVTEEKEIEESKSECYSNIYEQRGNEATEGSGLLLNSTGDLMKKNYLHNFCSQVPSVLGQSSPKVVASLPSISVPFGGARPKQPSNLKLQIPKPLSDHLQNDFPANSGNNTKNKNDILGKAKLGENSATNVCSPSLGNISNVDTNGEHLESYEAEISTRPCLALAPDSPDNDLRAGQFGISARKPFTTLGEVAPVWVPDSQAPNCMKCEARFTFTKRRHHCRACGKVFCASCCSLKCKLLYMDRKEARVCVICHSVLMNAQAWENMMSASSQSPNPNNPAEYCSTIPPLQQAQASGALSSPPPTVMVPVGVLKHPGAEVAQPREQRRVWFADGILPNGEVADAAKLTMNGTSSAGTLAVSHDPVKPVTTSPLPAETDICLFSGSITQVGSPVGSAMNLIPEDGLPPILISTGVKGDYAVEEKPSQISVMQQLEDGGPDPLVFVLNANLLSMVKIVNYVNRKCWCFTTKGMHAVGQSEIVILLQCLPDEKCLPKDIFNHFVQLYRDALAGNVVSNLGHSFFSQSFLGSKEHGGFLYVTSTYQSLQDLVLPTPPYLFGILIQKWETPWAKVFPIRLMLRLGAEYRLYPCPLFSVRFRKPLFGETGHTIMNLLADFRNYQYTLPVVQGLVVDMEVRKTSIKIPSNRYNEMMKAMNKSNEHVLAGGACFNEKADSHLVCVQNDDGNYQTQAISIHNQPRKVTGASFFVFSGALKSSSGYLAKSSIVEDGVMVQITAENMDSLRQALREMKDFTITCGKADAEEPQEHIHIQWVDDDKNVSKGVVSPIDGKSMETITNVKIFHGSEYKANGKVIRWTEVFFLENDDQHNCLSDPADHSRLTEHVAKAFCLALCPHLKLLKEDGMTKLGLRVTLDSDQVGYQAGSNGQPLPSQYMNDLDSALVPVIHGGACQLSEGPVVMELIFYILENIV
UniProt P67809, whole entry, looked up: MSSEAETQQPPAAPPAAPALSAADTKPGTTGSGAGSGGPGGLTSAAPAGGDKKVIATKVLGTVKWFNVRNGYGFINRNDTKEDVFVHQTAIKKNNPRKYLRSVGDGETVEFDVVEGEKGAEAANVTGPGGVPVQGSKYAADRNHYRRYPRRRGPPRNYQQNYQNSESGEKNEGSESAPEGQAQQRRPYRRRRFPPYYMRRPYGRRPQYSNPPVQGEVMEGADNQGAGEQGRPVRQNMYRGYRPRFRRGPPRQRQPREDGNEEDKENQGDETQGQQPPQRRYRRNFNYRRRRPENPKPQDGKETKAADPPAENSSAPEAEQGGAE

Key:
Assay in all cases: log2 fold change, soluble protein after heating vs DMSO (PISA); higher = thermal stabilisation; K562 lysate, 10 uM; active = over 0.2 and 3.5 SD of the protein, either way, in both replicates (recomputed)
nilotinib = compound: Cc1cn(-c2cc(NC(=O)c3ccc(C)c(Nc4nccc(-c5cccnc5)n4)c3)cc(C(F)(F)F)c2)cn1 [nilotinib]
Summary of the method: (§1)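 K562 pellets were dounce-homogenised in PBS pH 7.4 containing 1 mM MgCl2, and the crude extract, at 1 mg/mL protein, was exposed to 10 μM compound for 30 min. Aliquots were heated for 3 min across 48°C-58°C, pooled, brought to 0.5% NP-40 at 4°C and spun at 21,000xg for 90 min, with the supernatant taken as soluble protein. TMTpro 16plex LC-MS/MS with equalised channel sums quantified that protein. Values are log-two fold changes in thermal stability relative to solvent controls, taken from duplicates.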

[1] = compound: Cc1nc(Nc2n[nH]c3c2CN(C(=O)N[C@H](CN(C)C)c2ccccc2)C3(C)C)c2sccc2n1
Summary of the method: as §1

dasatinib = compound: Cc1nc(Nc2ncc(C(=O)Nc3c(C)cccc3Cl)s2)cc(N2CCN(CCO)CC2)n1 [dasatinib]
Summary of the method: as §1

[2] = compound: Cc1ncc(-c2ccnc(Nc3ccc(S(C)(=O)=O)cc3)n2)n1C(C)C
Summary of the method: as §1

[3] = compound: Cn1cc(-c2ccc3c(c2)CCN3C(=O)Cc2cccc(C(F)(F)F)c2)c2c(N)ncnc21
Summary of the method: as §1

quisinostat = compound: Cn1cc(CNCC2CCN(c3ncc(C(=O)NO)cn3)CC2)c2ccccc21 [quisinostat]
Summary of the method: as §1

tipifarnib = compound: Cn1cncc1[C@@](N)(c1ccc(Cl)cc1)c1ccc2c(c1)c(-c1cccc(Cl)c1)cc(=O)n2C [tipifarnib]
Summary of the method: as §1

[4] = compound: NC(=O)Nc1cc(-c2cccc(F)c2)sc1C(=O)N[C@H]1CCCNC1
Summary of the method: as §1

[5] = compound: NC(=O)c1cnc(N[C@@H]2CCCC[C@@H]2N)nc1Nc1cccc(-n2nccn2)c1
Summary of the method: as §1

[6] = compound: NC1(c2ccc(-c3nc4ccn5c(=O)[nH]nc5c4cc3-c3ccccc3)cc2)CCC1
Summary of the method: as §1

[7] = compound: NCC(=O)Nc1ccc(-n2nc(C(F)(F)F)cc2-c2ccc3c(ccc4ccccc43)c2)cc1
Summary of the method: as §1

vorinostat = compound: O=C(CCCCCCC(=O)Nc1ccccc1)NO [vorinostat]
Summary of the method: as §1

silmitasertib = compound: O=C(O)c1ccc2c(c1)nc(Nc1cccc(Cl)c1)c1ccncc12 [silmitasertib]
Summary of the method: as §1

[8] = compound: O=C1NC(=O)C(c2cnc3ccccn23)=C1c1cn2c3c(cc(F)cc13)CN(C(=O)N1CCCCC1)CC2
Summary of the method: as §1

entospletinib = compound: c1cn2cc(-c3ccc4cn[nH]c4c3)nc(Nc3ccc(N4CCOCC4)cc3)c2n1 [entospletinib]
Summary of the method: as §1

Measured: log2 fold change

ZFYVE19 (UniProt Q96K21)
inactive: nilotinib 0.014 | [1] -0.001 | dasatinib 0.007 | [2] 0.053 | [3] -0.041 | quisinostat -0.01 | tipifarnib 0.006 | [4] -0.003 | [5] 0.014 | [6] 0.003 | [7] 0.026 | vorinostat 0.105 | silmitasertib 0.002 | [8] 0.01 | entospletinib -0.012

ZFYVE28 (UniProt Q9HCC9)
inactive: nilotinib 0.102 | [1] 0.004 | dasatinib 0.038 | [2] 0.063 | [3] -0.046 | quisinostat -0.004 | tipifarnib -0.018 | [4] 0.036 | [5] -0.018 | [6] 0.027 | [7] 0.091 | vorinostat 0.148 | silmitasertib -0.03 | [8] 0 | entospletinib -0.067

YIPF4 (UniProt Q9BSR8)
inactive: nilotinib -0.024 | [1] 0.012 | dasatinib 0.004 | [2] 0.095 | [3] 0.044 | quisinostat 0.011 | tipifarnib -0.017 | [4] 0.01 | [5] -0.004 | [6] -0.032 | [7] -0.029 | vorinostat 0.119 | silmitasertib -0.052 | [8] 0.02 | entospletinib 0.024

ZADH2 (UniProt Q8N4Q0)
inactive: nilotinib 0.15 | [1] -0.066 | dasatinib -0.092 | [2] -0.047 | [3] -0.057 | quisinostat 0.096 | tipifarnib 0.152 | [4] -0.076 | [5] 0.15 | [6] 0.09 | [7] -0.053 | vorinostat 0.169 | silmitasertib 0.037 | [8] 0.079

ZCCHC17 (UniProt Q9NP64)
inactive: nilotinib -0.042 | [1] -0.045 | dasatinib -0.444 | [2] 0.044 | [3] -0.151 | quisinostat 0.009 | tipifarnib 0.059 | [4] -0.006 | [5] -0.051 | [6] 0.054 | [7] 0.001 | vorinostat -0.049 | silmitasertib 0.044 | [8] 0.02 | entospletinib -0.1

XPOT (UniProt O43592)
inactive: nilotinib -0.011 | [1] -0.017 | dasatinib -0.064 | [2] 0 | [3] -0.004 | quisinostat -0.056 | tipifarnib 0.005 | [4] 0.037 | [5] 0.003 | [6] -0.001 | [7] -0.012 | silmitasertib 0.035 | [8] 0.009 | entospletinib 0.037
active: vorinostat -0.656

XPO4 (UniProt Q9C0E2)
inactive: nilotinib -0.028 | [1] 0.031 | dasatinib -0.053 | [2] 0.013 | [3] 0.012 | quisinostat -0.056 | tipifarnib 0.01 | [4] 0.04 | [5] 0.005 | [6] 0.01 | [7] -0.023 | vorinostat -0.124 | silmitasertib 0.012 | [8] -0.011 | entospletinib 0.013

XPR1 (UniProt Q9UBH6)
inactive: nilotinib 0.04 | [1] 0.019 | dasatinib 0.024 | [2] 0.01 | [3] 0.005 | quisinostat -0.023 | tipifarnib -0.021 | [4] -0.034 | [5] -0.007 | [6] 0.079 | [7] 0.026 | vorinostat -0.076 | silmitasertib -0.072 | [8] 0.031 | entospletinib 0.093

ZFYVE9 (UniProt O95405)
inactive: nilotinib 0.037 | [1] 0.035 | dasatinib 0.013 | [2] -0.047 | [3] 0.073 | quisinostat -0.003 | tipifarnib -0.035 | [4] 0.018 | [5] 0.087 | [6] -0.018 | [7] 0.072 | vorinostat -0.186 | silmitasertib 0.004 | [8] 0.062 | entospletinib -0.011

YBX1 (UniProt P67809)
inactive: nilotinib -0.035 | [1] 0.027 | dasatinib 0.036 | [2] 0.02 | [3] -0.033 | quisinostat -0.041 | tipifarnib -0.014 | [4] 0.012 | [5] -0.025 | [6] 0.006 | [7] 0.017 | vorinostat 0.158 | silmitasertib -0.029 | [8] 0.006 | entospletinib 0.005
